Measured values: patent publication US10144732B2 (BIOGEN MA INC., priority 2014, dated 2018)
Where a name gives a salt, the structure may show the parent alone. Some entries share one result that the patent states for a list of compounds. At least one compound was matched to its structure with a doubt left.

target: T1, Human ATX protein (Homo sapiens, UniProt Q13822); test: ATX biochemical assay (FRET, FS-3 substrate); settings: FS-3 2 μM, ATX 1.0 μg/mL, 30 minutes preincubation, 2 hours reaction at room temperature
T1 construct: made in house
Source text: ATX (Autotaxin) is a 125 KDa glycoprotein with lysophospholipase D (LPLD) activity that generates the bioactive lipid lysophosphatidic acid (LPA) from lysophosphatidylcholine (LPC). The ATX biochemical assay utilizes a FRET (fluorescence resonance energy transfer) technology platform. The fluorescence signal of FRET substrate FS-3 is quenched due to intra-molecular FRET of a fluorophore to a non-fluorescing quencher (Ferguson, C. G., et al., Org Lett. 2006 May 11; 8(10): 2023-2026, which is incorporated by reference in its entirety). ATX catalyzes the hydrolysis of the substrate which separates the dabsyl quencher from the fluorescein reporter, which becomes fluorescent. The reaction is monitored by a SpectraMax M5 (Molecular Devices, Sunnyvale, Calif.) with at excitation wavelength 485 nm and emission wavelength […].
Fatty acid free-BSA (Sigma A8806): 10 mg/mL in H2O, stored at 4° C.
2×ATX assay buffer: 100 mM Tris, 280 mM NaCl, 10 mM KCl, 2 mM CaCl2, 2 mM MgCl2, pH 7.4.
Human ATX protein: expressed and purified in house. Stored at −80° C.
Substrate FS-3 (Echelon, L-2000): 100 μg in 77.74 μL H2O (1 mM stock), stored at −20° C.
384-well flat bottom plates—Corning #3575.
Compound dilution—All compounds were provided at 10 mM in 100% DMSO. […]
Fluorescence was measured using SpectraMax M5 (excitation at 485 nm/emission at 538 nm, top read).

Which IC50 does the source give for `O=C(C[C@H]1CC[C@H](C(=O)O)CC1)N1CCc2c(C(F)(F)F)nn(Cc3ccc(Cl)cc3)c2C1` [Example 7-5, trans-4-(2-(1-(4-CXhlorobenzyl)-3-(trifluoromethyl)-4,5-dihydro-1H-pyrazolo[3,4-c]pyridin-6(7H)-yl)-2-oxoethyl)cyclohexanecarboxylic acid] here?
Its IC50 is at most 0.1 µM.

Which IC50 does the source give for `C[C@]1(C(=O)O)C[C@H](CC(=O)N2CCc3c(C(F)(F)F)nn(Cc4ccc(F)cc4)c3C2)C1` [Example 7-24, trans-3-(2-(1-(4-fluorobenzyl)-3-(trifluoromethyl)-4,5-dihydro-1H-pyrazolo[3,4-c]pyridin-6(7H)-yl)-2-oxoethyl)-1-methylcyclobutanecarboxylic acid] here?
The IC50 was at most 0.1 µM.

tested on: 20:4 LPA (or 18:1 LPA) in rat K2 EDTA plasma; test: LPA plasma IC50 assay by LC-MS/MS; type: biochemical; settings: 37° C. for 18 hours, peak area ratio of 20:4 LPA (or 18:1 LPA) over 18:3 LPA

How did the IC50 turn out when `O=C(C[C@H]1CC[C@H](C(=O)O)CC1)N1CCc2c(C(F)(F)F)nn(Cc3ccc(Cl)cc3)c2C1` [Example 7-5, trans-4-(2-(1-(4-CXhlorobenzyl)-3-(trifluoromethyl)-4,5-dihydro-1H-pyrazolo[3,4-c]pyridin-6(7H)-yl)-2-oxoethyl)cyclohexanecarboxylic acid] was run?
Its IC50 is at most 0.1 µM.

For `O=C(O)C1CC2CCC(C1)N2CC(=O)N1CCc2c(C(F)(F)F)nn(Cc3ccc(Cl)cc3F)c2C1` (centres unmarked) [Example 13-4, 8-(2-(1-(4-Chloro-2-fluorobenzyl)-3-(trifluoromethyl)-4,5-dihydro-1H-pyrazolo[3,4-c]pyridin-6(7H)-yl)-2-oxoethyl)-8-azabicyclo[3.2.1]octane-3-carboxylic acid], which IC50 is on record?
Its IC50 is at most 0.1 µM.

How did the IC50 turn out when `O=C(O)C1CC2COCC(C1)N2CC(=O)N1CCc2c(C(F)(F)F)nn(Cc3ccc(F)cc3)c2C1` (centres unmarked) [Example 13-26, 9-(2-(1-(4-Fluorobenzyl)-3-(trifluoromethyl)-4,5-dihydro-1H-pyrazolo[3,4-c]pyridin-6(7H)-yl)-2-oxoethyl)-3-oxa-9-azabicyclo[3.3.1]nonane-7-carboxylic acid TFA salt] was run?
Its IC50 is at most 0.1 µM.

`CCCC1CC(CC(=O)N2CCc3c(C(F)(F)F)nn(Cc4ccc(F)cc4)c3C2)CCN1C` (centres unmarked) [Example 10-8, 1-(1-(4-Fluorobenzyl)-3-(trifluoromethyl)-4,5-dihydro-1H-pyrazolo[3,4-c]pyridin-6(7H)-yl)-2-(1-methyl-2-propylpiperidin-4-yl)ethanone acid TFA salt] was tested. Which IC50 did it give?
The IC50 was at most 0.1 µM.

For `O=C(C[C@H]1CC[C@@H](C(=O)O)CC1)N1CCc2c(C(F)(F)F)nn(Cc3ccccc3)c2C1` [Example 7-12, cis-4-(2-(1-benzyl-3-(trifluoromethyl)-4,5-dihydro-1H-pyrazolo[3,4-c]pyridin-6(7H)-yl)-2-oxoethyl)cyclohexanecarboxylic acid], which IC50 is on record?
Its IC50 is at most 0.1 µM.

With `O=C(C[C@H]1CC[C@H](C(=O)O)CC1)N1CCc2c(C(F)(F)F)nn(Cc3ccccc3)c2C1` [Example 7-11, trans-4-(2-(1-Benzyl-3-(trifluoromethyl)-4,5-dihydro-1H-pyrazolo[3,4-c]pyridin-6(7H)-yl)-2-oxoethyl)cyclohexanecarboxylic acid] as the compound, how does the IC50 read?
Its IC50 is at most 0.1 µM.

With `O=C(CC1CNCCO1)N1CCc2c(C(F)(F)F)nn(Cc3ccc(Cl)cc3F)c2C1` (centres unmarked) [Example 9-15, 1-(1-(4-Chloro-2-fluorobenzyl)-3-(trifluoromethyl)-4,5-dihydro-1H-pyrazolo[3,4-c]pyridin-6(7H)-yl)-2-(morpholin-2-yl)ethanone TFA salt] as the compound, how does the IC50 read?
Its IC50 is at most 0.1 µM.

How did the IC50 turn out when `COc1ccc(Cn2nc(C(F)(F)F)c3c2CN(C(=O)C[C@H]2CC[C@H](C(=O)O)CC2)CC3)cc1` [Example 5-15, trans-4-(2-(1-(4-Methoxylbenzyl)-3-(trifluoromethyl)-4,5-dihydro-1H-pyrazolo[3,4-c]pyridin-6(7H)-yl)-2-oxoethyl)cyclohexanecarboxylic acid] was run?
Its IC50 is at most 0.1 µM.

Which IC50 does the source give for `O=C(C[C@H]1CC[C@@H](C(=O)O)CC1)N1CCc2c(C(F)(F)F)nn(Cc3ccc(Cl)cc3Cl)c2C1` [Example 7-8, cis-4-(2-(1-(2,4-dichlorobenzyl)-3-(trifluoromethyl)-4,5-dihydro-1H-pyrazolo[3,4-c]pyridin-6(7H)-yl)-2-oxoethyl)cyclohexanecarboxylic acid] here?
The IC50 was at most 0.1 µM.

`O=C(O)C1CCN(CC(=O)N2CCc3c(C(F)(F)F)nn(Cc4ccc(F)cc4)c3C2)CC1` [Example 13-1, 1-(2-(1-(4-Fluorobenzyl)-3-(trifluoromethyl)-4,5-dihydro-1H-pyrazolo[3,4-c]pyridin-6(7H)-yl)-2-oxoethyl)piperidine-4-carboxylic acid] was tested. Which IC50 did it give?
Its IC50 is at most 0.1 µM.

How did the IC50 turn out when `O=C(O)C1CCN(CC(=O)N2CCc3c(C(F)(F)F)nn(Cc4ccc(Cl)cc4F)c3C2)CC1` [Example 13-2, 1-(2-(1-(4-Chloro-2-fluorobenzyl)-3-(trifluoromethyl)-4,5-dihydro-1H-pyrazolo[3,4-c]pyridin-6(7H)-yl)-2-oxoethyl)piperidine-4-carboxylic acid] was run?
Its IC50 is at most 0.1 µM.

Which IC50 does the source give for `CC1(C(=O)O)CCC(CC(=O)N2CCc3c(C(F)(F)F)nn(Cc4ccc(F)cc4)c3C2)CC1` (centres unmarked) [Example 6-11, 4-(2-(1-(4-Fluorobenzyl)-3-(trifluoromethyl)-4,5-dihydro-1H-pyrazolo[3,4-c]pyridin-6(7H)-yl)-2-oxoethyl)-1-methylcyclohexanecarboxylic acid] here?
The IC50 was at most 0.1 µM.

With `O=C(C[C@H]1CC[C@@H](C(=O)O)CC1)N1CCc2c(C(F)(F)F)nn(Cc3ccc(Cl)cc3)c2C1` [Example 7-6, cis-4-(2-(1-(4-chlorobenzyl)-3-(trifluoromethyl)-4,5-dihydro-1H-pyrazolo[3,4-c]pyridin-6(7H)-yl)-2-oxoethyl)cyclohexanecarboxylic acid] as the compound, how does the IC50 read?
Its IC50 is at most 0.1 µM.

For `O=C(O)C1CC2COCC(C1)N2CC(=O)N1CCc2c(C(F)(F)F)nn(Cc3ccc(Cl)cc3F)c2C1` (centres unmarked) [Example 13-27, 9-(2-(1-(4-Chloro-2-fluorobenzyl)-3-(trifluoromethyl)-4,5-dihydro-1H-pyrazolo[3,4-c]pyridin-6(7H)-yl)-2-oxoethyl)-3-oxa-9-azabicyclo[3.3.1]nonane-7-carboxylic acid TFA salt], which IC50 is on record?
Its IC50 is at most 0.1 µM.

`COC(=O)N1CCCC(CC(=O)N2CCc3c(C(F)(F)F)nn(Cc4ccc(F)cc4)c3C2)C1` (centres unmarked) [Example 16-1, Methyl 3-(2-(1-(4-fluorobenzyl)-3-(trifluoromethyl)-4,5-dihydro-1H-pyrazolo[3,4-c]pyridin-6(7H)-yl)-2-oxoethyl)piperidine-1-carboxylate] was tested. Which IC50 did it give?
The IC50 was at most 0.1 µM.

With `O=C(CC1CCNC(C(F)(F)F)C1)N1CCc2c(C(F)(F)F)nn(Cc3ccc(Cl)cc3F)c2C1` (centres unmarked) [Example 9-7, 1-(1-(4-Chloro-2-fluorobenzyl)-3-(trifluoromethyl)-4,5-dihydro-1H-pyrazolo[3,4-c]pyridin-6(7H)-yl)-2-(2-(trifluoromethyl)piperidin-4-yl)ethanone TFA salt] as the compound, how does the IC50 read?
Its IC50 is at most 0.1 µM.

For `O=C(CN[C@H]1CC[C@@H](C(=O)O)CC1)N1CCc2c(C(F)(F)F)nn(Cc3ccc(F)cc3)c2C1` [Example 13-30, cis-4-(2-(1-(4-Fluorobenzyl)-3-(trifluoromethyl)-4,5-dihydro-1H-pyrazolo[3,4-c]pyridin-6(7H)-yl)-2-oxoethylamino)cyclohexanecarboxylic acid TFA salt], which IC50 is on record?
Its IC50 is at most 0.1 µM.

With `O=C(C[C@H]1CC[C@@H](C(=O)O)CC1)N1CCc2c(C(F)(F)F)nn(Cc3cc(F)cc(Cl)c3)c2C1` [Example 5-4, cis-4-(2-(1-(3-chloro-5-fluorobenzyl)-3-(trifluoromethyl)-4,5-dihydro-1H-pyrazolo[3,4-c]pyridin-6(7H)-yl)-2-oxoethyl)cyclohexanecarboxylic acid] as the compound, how does the IC50 read?
The IC50 was at most 0.1 µM.
